Consider one molecule from paper doi:10.1101/2020.11.03.366906.

By UniProt entry, the sequences of proteins in these tests, tags left out.
UniProt P55196: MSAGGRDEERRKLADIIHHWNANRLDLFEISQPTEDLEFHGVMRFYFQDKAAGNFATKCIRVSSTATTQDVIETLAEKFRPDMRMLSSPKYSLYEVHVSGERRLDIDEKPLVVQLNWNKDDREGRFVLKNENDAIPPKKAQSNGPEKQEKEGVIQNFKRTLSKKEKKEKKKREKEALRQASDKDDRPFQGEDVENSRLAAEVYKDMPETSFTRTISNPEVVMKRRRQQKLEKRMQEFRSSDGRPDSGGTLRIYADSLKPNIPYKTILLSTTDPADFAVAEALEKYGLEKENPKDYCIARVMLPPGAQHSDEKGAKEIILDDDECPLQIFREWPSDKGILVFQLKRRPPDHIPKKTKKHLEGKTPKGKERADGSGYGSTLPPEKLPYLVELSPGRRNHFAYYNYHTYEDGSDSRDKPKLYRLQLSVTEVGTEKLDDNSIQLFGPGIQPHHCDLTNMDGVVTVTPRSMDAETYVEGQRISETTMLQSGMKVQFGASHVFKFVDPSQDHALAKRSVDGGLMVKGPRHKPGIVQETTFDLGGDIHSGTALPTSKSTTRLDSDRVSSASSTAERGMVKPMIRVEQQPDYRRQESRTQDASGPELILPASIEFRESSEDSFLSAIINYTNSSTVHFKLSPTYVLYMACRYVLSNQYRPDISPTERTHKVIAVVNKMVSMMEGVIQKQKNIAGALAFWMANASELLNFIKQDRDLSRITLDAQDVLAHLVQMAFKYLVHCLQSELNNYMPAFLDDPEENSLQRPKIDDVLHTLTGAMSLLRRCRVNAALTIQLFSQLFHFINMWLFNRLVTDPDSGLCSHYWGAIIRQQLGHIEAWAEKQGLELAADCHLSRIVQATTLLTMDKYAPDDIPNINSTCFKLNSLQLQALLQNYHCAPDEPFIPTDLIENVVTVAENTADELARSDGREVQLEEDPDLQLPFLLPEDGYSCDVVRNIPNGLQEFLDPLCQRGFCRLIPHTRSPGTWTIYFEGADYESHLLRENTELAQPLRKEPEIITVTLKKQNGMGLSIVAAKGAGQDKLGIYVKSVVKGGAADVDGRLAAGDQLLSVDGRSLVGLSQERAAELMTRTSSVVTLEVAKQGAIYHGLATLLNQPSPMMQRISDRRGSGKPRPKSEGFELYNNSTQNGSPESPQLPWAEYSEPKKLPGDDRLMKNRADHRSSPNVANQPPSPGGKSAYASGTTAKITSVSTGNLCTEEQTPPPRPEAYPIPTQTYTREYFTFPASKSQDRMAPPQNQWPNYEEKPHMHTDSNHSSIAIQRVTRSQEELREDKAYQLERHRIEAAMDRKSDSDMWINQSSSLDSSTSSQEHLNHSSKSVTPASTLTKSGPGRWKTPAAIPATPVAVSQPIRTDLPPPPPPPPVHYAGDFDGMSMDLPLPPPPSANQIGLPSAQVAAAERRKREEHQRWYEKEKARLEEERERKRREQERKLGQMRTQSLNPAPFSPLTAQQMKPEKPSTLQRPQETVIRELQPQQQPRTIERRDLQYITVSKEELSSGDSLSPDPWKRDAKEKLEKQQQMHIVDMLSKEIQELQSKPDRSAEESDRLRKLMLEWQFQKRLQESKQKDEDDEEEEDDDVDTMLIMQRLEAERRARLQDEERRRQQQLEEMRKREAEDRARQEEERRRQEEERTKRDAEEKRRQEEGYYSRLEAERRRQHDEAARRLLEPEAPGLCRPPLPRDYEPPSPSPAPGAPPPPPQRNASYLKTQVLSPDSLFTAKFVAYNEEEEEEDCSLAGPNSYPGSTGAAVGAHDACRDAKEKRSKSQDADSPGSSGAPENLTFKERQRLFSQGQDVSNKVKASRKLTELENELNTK

Results are given in words; binding and its absence hold for the method and conditions named. Binding seen in cells or lysates may run through a third protein. Some results given as binding are weak or reduced against the parent protein; the word gives no strength.

For this test, the target named is Afadin (human (endogenous in Caco-2)) (UniProt P55196). Nature of the test: co-IP.

B1: ASPP2 (protein, UniProt Q13625 1-1128)
chain: MMPMFLTVYLSNNEQHFTEVPVTPETICRDVVDLCKEPGESDCHLAEVWCGSERPVADNERMFDVLQRFGSQRNEVRFFLRHERPPGRDIVSGPRSQDPSLKRNGVKVPGEYRRKENGVNSPRMDLTLAELQEMASRQQQQIEAQQQLLATKEQRLKFLKQQDQRQQQQVAEQEKLKRLKEIAENQEAKLKKVRALKGHVEQKRLSNGKLVEEIEQMNNLFQQKQRELVLAVSKVEELTRQLEMLKNGRIDSHHDNQSAVAELDRLYKELQLRNKLNQEQNAKLQQQRECLNKRNSEVAVMDKRVNELRDRLWKKKAALQQKENLPVSSDGNLPQQAASAPSRVAAVGPYIQSSTMPRMPSRPELLVKPALPDGSLVIQASEGPMKIQTLPNMRSGAASQTKGSKIHPVGPDWSPSNADLFPSQGSASVPQSTGNALDQVDDGEVPLREKEKKVRPFSMFDAVDQSNAPPSFGTLRKNQSSEDILRDAQVANKNVAKVPPPVPTKPKQINLPYFGQTNQPPSDIKPDGSSQQLSTVVPSMGTKPKPAGQQPRVLLSPSIPSVGQDQTLSPGSKQESPPAAAVRPFTPQPSKDTLLPPFRKPQTVAASSIYSMYTQQQAPGKNFQQAVQSALTKTHTRGPHFSSVYGKPVIAAAQNQQQHPENIYSNSQGKPGSPEPETEPVSSVQENHENERIPRPLSPTKLLPFLSNPYRNQSDADLEALRKKLSNAPRPLKKRSSITEPEGPNGPNIQKLLYQRTTIAAMETISVPSYPSKSASVTASSESPVEIQNPYLHVEPEKEVVSLVPESLSPEDVGNASTENSDMPAPSPGLDYEPEGVPDNSPNLQNNPEEPNPEAPHVLDVYLEEYPPYPPPPYPSGEPEGPGEDSVSMRPPEITGQVSLPPGKRTNLRKTGSERIAHGMRVKFNPLALLLDSSLEGEFDLVQRIIYEVDDPSLPNDEGITALHNAVCAGHTEIVKFLVQFGVNVNAADSDGWTPLHCAASCNNVQVCKFLVESGAAVFAMTYSDMQTAADKCEEMEEGYTQCSQFLYGVQEKMGIMNKGVIYALWDYEPQNDDELPMKEGDCMTIIHREDEDEIEWWWARLNDKEGYVPRNLLGLYPRIKPRQRSLA
For the molecule B1, the binding result was “binds”.
